Taken from: PubChem BioAssay AID686943 (Drosophila RNAi Screening Center, 2013)
The screen tested about 23,000 reagents; below is an unselected part of those with a known target gene and a result. 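Extra replicates exist only for a retested subset of genes; insulin dose and duration not given; both raised and lowered dpERK matter.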 Reagents against one gene are numbered here. Further read-outs or replicates are left out here. Reagent sequences are not shown. The record does not give: the amount of reagent, the time to read-out.

Screen: 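Fly genes whose loss alters ERK activation after insulin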 (primary screen)
Cells: Drosophila S2R+ haemocyte-like cells expressing YFP-tagged ERK (Rolled)
Knock-down reagent: long dsRNA against Drosophila genes
Treatment: insulin stimulation versus unstimulated cells; dose and duration not given
Measurement: 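Per-plate z-scores of phospho-ERK immunostaining normalised to YFP-tagged ERK, measured with and without insulin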
Scale: replicate 1, z-score of dpERK with insulin and replicate 2, z-score of dpERK with insulin: higher = more active ERK per ERK-YFP after insulin

CG11406 #1 gave replicate 1, z-score of dpERK with insulin -0.02; replicate 2, z-score of dpERK with insulin -0.08. Depletion of CG11406 #2 came out at: replicate 1, z-score of dpERK with insulin 0.57; replicate 2, z-score of dpERK with insulin 0.79. Jon99Ci scored replicate 1, z-score of dpERK with insulin 0.57; replicate 2, z-score of dpERK with insulin 0. Silencing of Rab14 gave: replicate 1, z-score of dpERK with insulin -0.66; replicate 2, z-score of dpERK with insulin -0.09. For CG4658 the deposit lists replicate 1, z-score of dpERK with insulin -0.85; replicate 2, z-score of dpERK with insulin 2.4. Against CG3222, the entry reads replicate 1, z-score of dpERK with insulin -0.38; replicate 2, z-score of dpERK with insulin 0.22.

CG42564 showed replicate 1, z-score of dpERK with insulin 0.5; replicate 2, z-score of dpERK with insulin -0.43.

2 entries from above, reduced to “replicate 2, z-score of dpERK with insulin”:
CG3222: 0.22
CG42564: -0.43

Next records follow.
CG12010 showed replicate 1, z-score of dpERK with insulin 0.95; replicate 2, z-score of dpERK with insulin 0.23. For Obp56d, the entry reads replicate 1, z-score of dpERK with insulin -0.36; replicate 2, z-score of dpERK with insulin 0.11. After knock-down of PMP34, the screen gave replicate 1, z-score of dpERK with insulin -0.16; replicate 2, z-score of dpERK with insulin 1.44. beat-IV #1 showed replicate 1, z-score of dpERK with insulin -0.82; replicate 2, z-score of dpERK with insulin -0.66. For beat-IV #2, the values are replicate 1, z-score of dpERK with insulin 0.48; replicate 2, z-score of dpERK with insulin 0.5. Klp61F scored replicate 1, z-score of dpERK with insulin -3.27; replicate 2, z-score of dpERK with insulin -1.39.

CG16824 scored replicate 1, z-score of dpERK with insulin 1.05; replicate 2, z-score of dpERK with insulin 2.05. Knock-down of CG4404 gave: replicate 1, z-score of dpERK with insulin 0.07; replicate 2, z-score of dpERK with insulin -0.22. Knock-down of CG17190 resulted in: replicate 1, z-score of dpERK with insulin -0.01; replicate 2, z-score of dpERK with insulin 0. BORCS6 scored replicate 1, z-score of dpERK with insulin -0.41; replicate 2, z-score of dpERK with insulin -0.43. Rsf1 #1 scored replicate 1, z-score of dpERK with insulin -0.14; replicate 2, z-score of dpERK with insulin 0.35. Rsf1 #2 showed replicate 1, z-score of dpERK with insulin 0.03; replicate 2, z-score of dpERK with insulin 0.3.

Depletion of CG14937 came out at: replicate 1, z-score of dpERK with insulin -0.11; replicate 2, z-score of dpERK with insulin 0.65. After knock-down of CG2790, the record shows replicate 1, z-score of dpERK with insulin -0.02; replicate 2, z-score of dpERK with insulin -0.22.
